Results as given in the supplement of paper PMC10727501.
Some of the results follow. This data set is noisy: repeats of one test often differ as much as different tests do.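 Researchers measured free-swimming zebrafish larvae's O-bend response probability to dark flashes (naive: first five; training: remaining flashes of four 60-flash blocks; test: later 60-flash block) and OMR turning toward alternating leftward/rightward LED motion. Six treated larvae were compared to sixty 0.1% DMSO controls, with |SSMD|≥2 marking a hit.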

Columns and labels:
Settings in all cases: 10 µM; pre-incubation: 30-90 min
[1] = tested on: Danio rerio larvae (5 dpf, TLF); assay: OMR-Perf (SSMD vs DMSO vehicle); higher = higher than vehicle (e.g. higher dark-flash O-bend response probability, or better optomotor performance)
[2] = tested on: Danio rerio larvae (5 dpf, TLF); assay: Prob-Test (SSMD vs DMSO vehicle); higher = higher than vehicle (e.g. higher dark-flash O-bend response probability, or better optomotor performance)
[3] = tested on: Danio rerio larvae (5 dpf, TLF); assay: Prob-Naive (SSMD vs DMSO vehicle); higher = higher than vehicle (e.g. higher dark-flash O-bend response probability, or better optomotor performance)
[4] = tested on: Danio rerio larvae (5 dpf, TLF); assay: Prob-Train (SSMD vs DMSO vehicle); higher = higher than vehicle (e.g. higher dark-flash O-bend response probability, or better optomotor performance)

C=C(C)[C@@H]1[C@H]2OC(=O)[C@@H]1[C@]1(O)C[C@H]3O[C@]34C(=O)O[C@H]2[C@]14C [Picrotoxinin] showed an OMR-Perf [1] of -0.453, a Prob-Test [2] of 1.06 and a Prob-Naive [3] of 0.259. For the same compound, the Prob-Train [4] was 2.06.
